From PubChem BioAssay AID1508600 (Functional Genomics Laboratory (NCATS/FGL), 2020)
The campaign covered roughly 53,000 sequences. About 3,700 (7%) were called active.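 How the source made its calls: active means gene knockdowns whose robust z-score for IL-1 alpha signal is at least 2 or at most -2, so actives lie on both sides; inactive means the rest.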 The list shows a part of the results.

Assay: Components of the Cytosolic LPS Sensing Pathway: Gene Identification via Genome-wide siRNA Screen;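 further: robust z of the log signal after scaling to non-targeting control siRNA wells of the plate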
Conditions: RAW264.7 macrophages, IL-1a HTRF, actives lie on both sides, screened at 100 nM (by protocol), cells primed 5 h with Pam3CSK4 first
Procedure, shortened: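 Supernatant IL-1a by HTRF from RAW264.7 cells primed with Pam3CSK4 (5 hours) and transfected with LipidA (24 hour) after 48h siRNA knockdown at 100 nM; cell viability checked with CellTiter-Glo.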

Row | Sequence | z-score
1 | GCCACGAAACAUAGUCACUTT against 1810055G02Rik | inactive: -0.909
2 | CCUAUUUUUGCCCUAUAGUTT against Cfap52 | inactive: 0.209
3 | CCACCAUCUGCUCUAAUCATT against Got2 | inactive: -0.37
4 | CCUGUUUCUAACAACCACUTT against Isg20 | inactive: 0.264
5 | GGAAUCUGGGCUCUUACACTT against Tfap2a | inactive: -0.141
6 | GGCAAAAAGCUCAAAAACATT against Fbxo32 | inactive: -1.78
7 | CCAUGACCUAGGCAGAUAGTT against Tsga8 | inactive: -0.464
8 | GGGAGCAUCAAAUUUUGAUTT against Wapl | inactive: 0.832
9 | GGUUGUAUAACUCAGAUCUTT against Olfr1311 | inactive: 1.14
10 | GGUGCAUAAAGAGAGCGAUTT against Ric8b | inactive: -0.567
11 | UCGGAAAGGGCCAUGAUAATT against Bola1 | inactive: 0.898
12 | CGAGUUUGUAAUGAUGCUATT against Cabp4 | active: 2.51
13 | GCUAACUUACCCAAAGAAATT against Tnfaip3 | inactive: 1.41
14 | CCAACUAUAACUCAGUCACTT against Ebf1 | inactive: -0.366
15 | GGAUGUUACAAAAGUCUGGTT against Rcc1l | inactive: -0.0458
16 | GGAAAAAAGGAACAAAUGCTT against Pde5a | inactive: -0.962
17 | GGUCUAGCUCAAAAUCCCATT against Srek1 | inactive: -1.3
18 | CCUUAAGGAAUGCCAGCAATT against 5930403N24Rik | inactive: -0.395
19 | GCUAUACACUUGGCCCAUUTT against Sfr1 | inactive: -1.6
20 | GGAAGAGCUGCUGAAAGAGTT against Tekt2 | inactive: 0.403
21 | GGACAAACUUCAAAAAGGUTT against Ccdc187 | inactive: -0.305
22 | GGGUGUCUUCAACAAGUACTT against Dnttip1 | inactive: -1.71

Two records picked at random from those above, as already listed:
Row | Sequence | z-score
3 | CCACCAUCUGCUCUAAUCATT against Got2 | inactive: -0.37
12 | CGAGUUUGUAAUGAUGCUATT against Cabp4 | active: 2.51

More entries

Row | Sequence | z-score
23 | CGGAAUCAUACCCUGCUGUTT against Ube2q1 | inactive: -0.476
24 | GGGAAAAGAGCUGGAUUCUTT against Pnpo | inactive: -0.195
25 | GCUAAAAGAUCAUUGGAGUTT against Ear10 | inactive: -1.02
26 | GCAUCCUAGCAGAGAUUUATT against Pla2r1 | inactive: 1.99
27 | GGUGUCUUUAUUUAAUAGGTT against Ccng2 | inactive: -0.135
28 | GGAAUCUACCACUUGGUUCTT against Chrdl2 | inactive: -0.936
29 | GGUGUUCAAAAAGUUUAACTT against Zswim1 | inactive: 1.02
30 | CGUUCAGGAAACUACAAAATT against Mto1 | inactive: 0.237
31 | GCUCAUUGGGAUCAUUGGUTT against Fancd2 | inactive: 1.45
32 | GCUCGUUUGUGUAUAAGGATT against 4930503L19Rik | inactive: 0.276
33 | GGGAUCAAGUGUUUCGCUGTT against Apbb1 | inactive: -0.516
34 | GGCAUUAUGUCAUUGCUGATT against Alg14 | inactive: 0.682
35 | GCCGAACGAAUCCUCAAGUTT against Trim56 | inactive: 0.979
36 | CCAUAUGAAACUUAUAGCCTT against Nmi | inactive: -0.104
37 | GCAAGGUGAUCACUCUCUCTT against Olfr187 | inactive: 0.533
38 | GCUCUUGGCAAGGACAAUUTT against A830019P07Rik | inactive: 0.612
39 | GGUGGUUCAGUUCAAUCGUTT against Lamtor3 | inactive: 0.974
40 | GGAAAUUGACAGAAUGGUUTT against Syf2 | inactive: -0.287
41 | GGUGUGGACUGUCAUCUCUTT against Olfr139 | inactive: 1.24
42 | GGAAAAAUCAUCCUGGCUCTT against Sptssa | inactive: -1.02
43 | CCGGGAGAAUCAUCGAGAUTT against Cfap57 | inactive: -0.873
44 | GGAUGACAUGUCAUCAAAGTT against Vmn1r89 | inactive: -1.38

Taken from above.
z-score, GGGAUCAAGUGUUUCGCUGTT against Apbb1 is entered as inactive: -0.516
z-score, CGAGUUUGUAAUGAUGCUATT against Cabp4 is entered as active: 2.51
z-score, GCUCGUUUGUGUAUAAGGATT against 4930503L19Rik is entered as inactive: 0.276

Further records

Row | Sequence | z-score
45 | GGUUCCAUUCCCUCACAAUTT against Bcl9 | inactive: -0.0313
46 | GGUGGUCACUAAGAAGUUCTT against Prps1l1 | active: 2.48
47 | GGGUAUCAUGGGAAACAGATT against Atp12a | inactive: -0.0515
48 | GGAGUGUUAAGAUUUGGAATT against Chpt1 | inactive: 0.034
49 | GGAUAAAUUUCAAGAUGUGTT against Naip5 | inactive: -0.552
50 | GGGAAAUCAAGAUCAUUUCTT against Olfr1294 | inactive: 0.256
51 | GGGAUAGAGAAGAAGAAAATT against Dguok | inactive: -0.161
52 | GGGACUGUAUAUGUAAAGATT against Adgb | inactive: 0.509
53 | GGAUGAGGUAUUAACAAGUTT against Trir | inactive: -0.312
54 | GGAAAUCAGACUGCUCAAGTT against Nek3 | inactive: -1.14
55 | GCCACCUCAAUGAAAGGAGTT against Slc23a1 | inactive: 1.83
56 | CUACGAGCCACUUCUGAGATT against Krt87 | inactive: -0.431
57 | GCCUCAGUAUUGGUGCUCUTT against Shisal2b | inactive: -0.643
58 | GGUCAAAUAAAACAGAAGATT against Denr | inactive: 0.724
59 | GUUUUGUUUCAGAGCACAATT against Olfr898 | inactive: 0.465
60 | GGAAGGAGUAUAUUAAUGCTT against Stx18 | inactive: -0.219
61 | CCUACUACCAGGAUGAACATT against Men1 | inactive: -0.512
62 | GGAUUGCUGUAAAAUACAATT against Cdkn2aipnl | active: 2.16
63 | GCCUCAUGUACGGACACAATT against Mpp4 | inactive: -0.418
64 | GGUGGUCUACCAGCAUUUGTT against Pde4dip | active: 2.16
65 | GCUGGAGACGUAUUUGUCCTT against Olfr294 | active: 2.17
66 | GGUAAAAGCGAUUUGGACUTT against Gsc | inactive: -0.51

Part of the list above in a different format.
CUACGAGCCACUUCUGAGATT against Krt87
  z-score: inactive: -0.431
GCCUCAGUAUUGGUGCUCUTT against Shisal2b
  z-score: inactive: -0.643
GGUCAAAUAAAACAGAAGATT against Denr
  z-score: inactive: 0.724
GUUUUGUUUCAGAGCACAATT against Olfr898
  z-score: inactive: 0.465

Going on with the list:

Row | Sequence | z-score
67 | GGCCAUCAGUAUCAGCAAATT against Hip1r | inactive: 0.547
68 | GGUUAACGAGCACAUUACCTT against Lmod2 | inactive: -0.00208
69 | GGCUAUUCGCUAUUGCCAUTT against Tssk3 | inactive: 0.135
70 | GGGAUUAAUACAGCAAUUUTT against Ddx24 | inactive: -1.62
71 | GGGUAUGGUUCUGUUGGCATT against Pxmp4 | inactive: -1.45
72 | GGUUUUGGGUCUAUGCUUCTT against Sde2 | inactive: 0.311
73 | GGCAGAUCUGAUCAACGGATT against Mtln | active: -2.14
74 | CCGAGAGUUAACCUCAAAATT against 4931440P22Rik | inactive: -0.894
75 | CGAUAAGGGCUGUUUAUAUTT against Rnasel | inactive: 0.26
76 | CCAACCUUUCCGCAUGAUGTT against Rpusd1 | inactive: -0.237
77 | GGGACACUGGGAAGAAACATT against 2810021J22Rik | inactive: -0.548
78 | GGGCAUGAUUUUCACUUCCTT against Gpr150 | inactive: 0.79
79 | GGAGAUAUGGAAGAAGACATT against Pja2 | inactive: 0.566
80 | GCUGCAUUGUGGAUUAUAUTT against Thumpd1 | inactive: 0.354
81 | GCGACUUGCUGAAUGAUUUTT against Pfkm | inactive: 0.968
82 | CCCUCAGCAGUUUAUGGAUTT against Kin | inactive: 0.27
83 | CGAUUGACUUAAGAUUCAGTT against Hlf | inactive: -0.612
84 | GCUUUAGAAUUCCAUACGATT against Zfp114 | inactive: 1.65
85 | CGAAGUUCACUUCUUUGAGTT against Eif2a | inactive: 0.318
86 | CCGUCCAAAUCCUUAUUGATT against Pcdhb2 | inactive: 0.425
87 | GGAGAACCAUGAGAGGGACTT against 1700037C18Rik | inactive: -0.0305
88 | UCAGCUGGUUUUAAUCUCUTT against Olfr1029 | inactive: -0.193

Row | Sequence | z-score
89 | GGGAAGAGAGACGAAAAAATT against Nufip1 | inactive: 1.13
90 | CCAGCAACCUUAAGAAAUUTT against Ppp2r1a | inactive: 1.33
91 | GGGACAGCAAAGAAGAUAATT against Rrad | inactive: -1.25
92 | GGAUGUGCUCUGUGAAUGCTT against Pgf | inactive: 0.533
93 | GGUGAUGAAGAUUUCAAAGTT against Tcf7 | inactive: 0.598
94 | GGGUUUACAAAAGAAUAUGTT against Nck2 | inactive: -1.53
95 | GGAGAAAUUUAAGAAGAGUTT against Xrcc5 | inactive: 0.674
96 | GGUUGAAAUUCGGAAAAAATT against Mnat1 | inactive: -0.95
97 | GUCAUGGUAGGGAUUUACATT against Taar4 | active: -2.83
98 | CCUCAAUUGCAUGUGACCUTT against Itgb1bp1 | active: -2.32
99 | GAAUCACAGGACUUCUGCATT against Bcl2 | inactive: 0.124
100 | GCAAGAAGUUCCUAUCAUCTT against Polr2b | inactive: -1.67
101 | GGAUGACAAUCAACAUUCCTT against Ppp6r1 | inactive: -1.66
102 | CCUCAUGCUAGCCUCAUGATT against Actg1 | inactive: -0.214
103 | GGACUUAAUCCCAUGGAGCTT against Gask1a | inactive: 0.345
104 | GGAAGUGACCUGUCUGAAGTT against Gramd1a | inactive: 0.641
105 | GCUCCACAUGAGAUUCUCATT against Sec14l1 | inactive: -1.92
106 | GCCUACUCCCAAGAGGAAATT against Gprc5a | active: 2.32
